# The supplement of paper PMC8728848
# The list shows a part of the results.
# B1: EULS2 M1 (Oryza sativa) (protein)
# chain: MVYCRANPNYAMTARNGAVVLAPANPKDEYQHWIKDMRWSTSIKDEEGYPAFALVNKATGQAIKHSLGQSHPVRLVPYNPEVMDESVLWTESRDVGNGFRCIRMVNNIYLNFDAFHGDKYHGGVRDGTDIVLWKLCEGDNQRWKIQPYYILEQKLISEEDLNSAVDHHHHHH
# Legend:
# Experiment in all cases: glycan array binding signal (z-score within array); higher = stronger binding
# Settings in all cases: glycan notation: IUPAC condensed, linker removed
# [1] = target: Fuc(a1-3)GlcNAc
# Procedure, shortened: (§1)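 Glycan array data came from 3228 arrays in the Consortium for Functional Glycomics database, and only arrays with an available protein sequence were kept. Glycan names were put into IUPAC-condensed notation, and columns mapping to the same glycan were averaged. The binding signal is a within-array Z-score, averaged across arrays of one protein sequence run at different concentrations or buffers and across linkers. A negative Z-score can be read as non-binding.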
# [2] = target: Fuc(a1-3)[Gal(b1-4)]Glc6S
# Procedure, shortened: as §1
# [3] = target: Fuc(a1-3)[Gal(b1-4)]GlcNAc
# Procedure, shortened: as §1
# [4] = target: Fuc(a1-3)[Gal(b1-4)]GlcNAc(b1-2)Man
# Procedure, shortened: as §1
# [5] = target: Fuc(a1-3)[Gal(b1-4)]GlcNAc(b1-2)Man(a1-3)[Fuc(a1-3)[Gal(b1-4)]GlcNAc(b1-2)Man(a1-6)]Man(b1-4)GlcNAc(b1-4)GlcNAc
# Procedure, shortened: as §1
# [6] = target: Fuc(a1-3)[Gal(b1-4)]GlcNAc(b1-2)Man(a1-3)[Fuc(a1-3)[Gal(b1-4)]GlcNAc(b1-2)Man(a1-6)]Man(b1-4)GlcNAc(b1-4)[Fuc(a1-6)]GlcNAc
# Procedure, shortened: as §1
# [7] = target: Fuc(a1-3)[Gal(b1-4)]GlcNAc(b1-3)Gal(b1-3)[Fuc(a1-4)]GlcNAc
# Procedure, shortened: as §1
# [8] = target: Fuc(a1-3)[Gal(b1-4)]GlcNAc(b1-3)Gal(b1-4)[Fuc(a1-3)]GlcNAc
# Procedure, shortened: as §1
# [9] = target: Fuc(a1-3)[Gal(b1-4)]GlcNAc(b1-3)Gal(b1-4)[Fuc(a1-3)]GlcNAc(b1-3)Gal(b1-4)[Fuc(a1-3)]GlcNAc
# Procedure, shortened: as §1
# [10] = target: Fuc(a1-3)[Gal(b1-4)]GlcNAc(b1-3)GalNAc
# Procedure, shortened: as §1
# [11] = target: Fuc(a1-3)[Gal(b1-4)]GlcNAc(b1-6)GalNAc
# Procedure, shortened: as §1
# [12] = target: Fuc(a1-3)[Gal(b1-4)]GlcNAc(b1-6)[Gal(b1-3)GlcNAc(b1-3)]Gal(b1-4)Glc
# Procedure, shortened: as §1
# [13] = target: Fuc(a1-3)[Gal(b1-4)]GlcNAc6S
# Procedure, shortened: as §1
# [14] = target: Fuc(a1-3)[Gal3S(b1-4)]Glc
# Procedure, shortened: as §1
# [15] = target: Fuc(a1-3)[Gal3S(b1-4)]GlcNAc
# Procedure, shortened: as §1
# [16] = target: Fuc(a1-3)[Gal3S(b1-4)]GlcNAc6S
# Procedure, shortened: as §1
# [17] = target: Fuc(a1-3)[GalNAc(b1-4)]GlcNAc
# Procedure, shortened: as §1
# [18] = target: Fuc(a1-3)[GalNAc(b1-4)]GlcNAc6S
# Procedure, shortened: as §1
# [19] = target: Fuc(a1-4)GlcNAc
# Procedure, shortened: as §1
# [20] = target: Fuc(b1-3)GlcNAc
# Procedure, shortened: as §1
# [21] = target: Gal(a1-2)Gal
# Procedure, shortened: as §1
# [22] = target: Gal(a1-3)Gal
# Procedure, shortened: as §1
# [23] = target: Gal(a1-3)Gal(b1-3)GlcNAc
# Procedure, shortened: as §1
# [24] = target: Gal(a1-3)Gal(b1-3)GlcNAc(b1-2)Man
# Procedure, shortened: as §1
# [25] = target: Gal(a1-3)Gal(b1-3)GlcNAc(b1-2)Man(a1-3)[Gal(a1-3)Gal(b1-3)GlcNAc(b1-2)Man(a1-6)]Man(b1-4)GlcNAc(b1-4)GlcNAc
# Procedure, shortened: as §1
# [26] = target: Gal(a1-3)Gal(b1-3)GlcNAc(b1-3)GalNAc
# Procedure, shortened: as §1
# [27] = target: Gal(a1-3)Gal(b1-3)GlcNAc(b1-6)GalNAc
# Procedure, shortened: as §1
# [28] = target: Gal(a1-3)Gal(b1-3)[Fuc(a1-4)]GlcNAc(b1-2)Man(a1-3)[Gal(a1-3)Gal(b1-3)[Fuc(a1-4)]GlcNAc(b1-2)Man(a1-6)]Man(b1-4)GlcNAc(b1-4)GlcNAc
# Procedure, shortened: as §1
# [29] = target: Gal(a1-3)Gal(b1-4)Glc
# Procedure, shortened: as §1
# [30] = target: Gal(a1-3)Gal(b1-4)GlcNAc
# Procedure, shortened: as §1
# [31] = target: Gal(a1-3)Gal(b1-4)GlcNAc(b1-2)Man
# Procedure, shortened: as §1
# [32] = target: Gal(a1-3)Gal(b1-4)GlcNAc(b1-2)Man(a1-3)[Gal(a1-3)Gal(b1-4)GlcNAc(b1-2)Man(a1-6)]Man(b1-4)GlcNAc(b1-4)GlcNAc
# Procedure, shortened: as §1
# [33] = target: Gal(a1-3)Gal(b1-4)GlcNAc(b1-3)GalNAc
# Procedure, shortened: as §1
# [34] = target: Gal(a1-3)Gal(b1-4)GlcNAc(b1-6)GalNAc
# Procedure, shortened: as §1
# [35] = target: Gal(a1-3)Gal(b1-4)[Fuc(a1-3)]GlcNAc
# Procedure, shortened: as §1
# [36] = target: Gal(a1-3)Gal(b1-4)[Fuc(a1-3)]GlcNAc(b1-2)Man(a1-3)[Gal(a1-3)Gal(b1-4)[Fuc(a1-3)]GlcNAc(b1-2)Man(a1-6)]Man(b1-4)GlcNAc(b1-4)GlcNAc
# Procedure, shortened: as §1
# [37] = target: Gal(a1-3)GalNAc
# Procedure, shortened: as §1
# [38] = target: Gal(a1-3)[Gal(a1-4)]Gal(b1-4)GlcNAc
# Procedure, shortened: as §1
# [39] = target: Gal(a1-4)Gal(b1-3)GlcNAc(b1-2)Man(a1-3)[Gal(a1-4)Gal(b1-3)GlcNAc(b1-2)Man(a1-6)]Man(b1-4)GlcNAc(b1-4)GlcNAc
# Procedure, shortened: as §1
# [40] = target: Gal(a1-4)Gal(b1-4)Glc
# Procedure, shortened: as §1
# [41] = target: Gal(a1-4)Gal(b1-4)GlcNAc
# Procedure, shortened: as §1
# [42] = target: Gal(a1-4)Gal(b1-4)GlcNAc(b1-2)Man(a1-3)[Gal(a1-4)Gal(b1-4)GlcNAc(b1-2)Man(a1-6)]Man(b1-4)GlcNAc(b1-4)GlcNAc
# Procedure, shortened: as §1
# [43] = target: Gal(a1-4)Gal(b1-4)GlcNAc(b1-3)Gal(b1-4)Glc
# Procedure, shortened: as §1
# [44] = target: Gal(a1-4)GlcNAc
# Procedure, shortened: as §1
# [45] = target: Gal(a1-6)Glc
# Procedure, shortened: as §1
binder,measurement,setting,value
B1,glycan array binding signal (z-score),[1],-0.551
same,glycan array binding signal (z-score),[2],-0.049
same,glycan array binding signal (z-score),[3],0.301
same,glycan array binding signal (z-score),[4],-0.708
same,glycan array binding signal (z-score),[5],0.033
same,glycan array binding signal (z-score),[6],-0.383
same,glycan array binding signal (z-score),[7],-0.151
same,glycan array binding signal (z-score),[8],-0.138
same,glycan array binding signal (z-score),[9],-0.074
same,glycan array binding signal (z-score),[10],-0.322
same,glycan array binding signal (z-score),[11],-0.281
same,glycan array binding signal (z-score),[12],-0.03
same,glycan array binding signal (z-score),[13],-0.261
same,glycan array binding signal (z-score),[14],-0.213
same,glycan array binding signal (z-score),[15],-0.555
same,glycan array binding signal (z-score),[16],0.046
same,glycan array binding signal (z-score),[17],0.088
same,glycan array binding signal (z-score),[18],-0.713
same,glycan array binding signal (z-score),[19],-0.4
same,glycan array binding signal (z-score),[20],0.184
same,glycan array binding signal (z-score),[21],0.889
same,glycan array binding signal (z-score),[22],0.188
same,glycan array binding signal (z-score),[23],3.45
same,glycan array binding signal (z-score),[24],-0.609
same,glycan array binding signal (z-score),[25],0.085
same,glycan array binding signal (z-score),[26],-1.23
same,glycan array binding signal (z-score),[27],0.439
same,glycan array binding signal (z-score),[28],0.389
same,glycan array binding signal (z-score),[29],0.535
same,glycan array binding signal (z-score),[30],0.196
same,glycan array binding signal (z-score),[31],-0.165
same,glycan array binding signal (z-score),[32],0.844
same,glycan array binding signal (z-score),[33],-0.954
same,glycan array binding signal (z-score),[34],1.19
same,glycan array binding signal (z-score),[35],-0.542
same,glycan array binding signal (z-score),[36],-0.565
same,glycan array binding signal (z-score),[37],0.155
same,glycan array binding signal (z-score),[38],0.986
same,glycan array binding signal (z-score),[39],0.474
same,glycan array binding signal (z-score),[40],-0.987
same,glycan array binding signal (z-score),[41],-0.469
same,glycan array binding signal (z-score),[42],-0.528
same,glycan array binding signal (z-score),[43],0.021
same,glycan array binding signal (z-score),[44],0.337
same,glycan array binding signal (z-score),[45],-0.132

# Given with tabs: part of the list above
binder	measurement	setting	value
B1	glycan array binding signal (z-score)	[5]	0.033
same	glycan array binding signal (z-score)	[6]	-0.383
